According to US20230046828A1:
These are yes or no findings as the source states them, for the method shown. Binding calls can cover weak binding; strength is not graded here.

B1: FR-HMGB1 Box A 1-88 (full HMG Box with flanking regions) (ligand)
chain: GKGDPKKPRGKMSSYAFFVQTCREEHKKKHPDASVNFSEFSKKCSERWKTMSAKEKGKFEDMAKADKARYEREMKTYIPPKGETKKKF
modifications: biotinylated in BLI

Legend:
[1] = target: CXCL12 (CXC Ligand 12) (UniProt O62657); assay: summary of BLI, peptide array and NMR results
[2] = target: CXCL12 (CXC Ligand 12) (UniProt O62657); assay: BLI, biotinylated HMGB1 construct on streptavidin sensors, CXCL12 0-150 µM
[3] = target: CXCL12 (CXC Ligand 12) (UniProt O62657); assay: BLI, biotinylated HMGB1 construct on streptavidin sensor, CXCL12 0-150 µM; response at equilibrium against concentration
[4] = target: CXCL12 (CXC Ligand 12) (UniProt O62657); assay: BLI interferograms, biotinylated HMGB1 construct on streptavidin sensor, CXCL12 0-150 µM
[5] = target: CXCL12 (CXC Ligand 12) (UniProt O62657); assay: alanine-scan SPOT peptide array probed with CXCL12-His6, anti-His-HRP
[6] = target: CXCL12 (CXC Ligand 12) (UniProt O62657); assay: peptide array, unmodified CXCL12 binding peptide probed with CXCL12

Row | Binder | binding [5] | binding [6] | other results
1 | B1 |  |  | binding [1]: binds; binding [2]: binds; binding [3]: binds; binding [4]: binds
2 | DPKKPRGKMSSYAFFVQ [SEQ ID NO 105] | binds | binds | 
3 | MSSYAFFVQTCREEH [SEQ ID NO 106] | binds | binds | 
4 | HKKKHPDASVNFSEF [SEQ ID NO 107] | binds | binds | 
5 | KADKARYEREMKTYIPPKG [SEQ ID NO 108] | binds | binds | 
6 | YRPKIKGEHPGLSIG [SEQ ID NO 110] | binds | binds | 
7 | DPNAPKRPPSAFFLFCSEY [SEQ ID NO 109] |  | binds | 
8 | LKEKYEKDIAAYRAKGKPD [SEQ ID NO 111] |  | binds | 
